The target in assay [1] is MBP-Kermit (Drosophila) (UniProt E2QC84). Kind of assay: pull-down; MBP-Kermit immobilised (amylose resin by the results, CNBr-Sepharose by the methods); soluble purified Gαo, human RGS19 or CG5036 added in equimolar amounts; HKB buffer, 3 h at 4°C, Western blot; both purified.
Assay [2] shares this target. Kind of assay: pull-down; MBP-Kermit immobilised on matrix; Drosophila head extracts from GMR-Gal4; UAS-Gαo flies; 3 h at 4°C, Western blot with anti-Gαo/i3; only the target purified. For orientation: Immunoblotting shows a protein as a band on a membrane.
A further assay addresses His6-Gαo (Drosophila) (UniProt P16378). The experiment in a line: pull-down; His6-Gαo (preloaded with 1 mM GDP or GTPγS) or control GST covalently linked on CNBr-activated Sepharose; soluble MBP-Kermit preparation (with cleaved MBP) added; HKB buffer (50 mM HEPES-NaOH, 100 mM KCl, 10 mM NaCl, 1 mM DTT, 5 mM MgCl2, pH 7.5), 3 h at 4°C, 5 washes, elution with 8 M urea, Western blot; both purified.

Sequences of proteins named here, by UniProt entry; tags and fusion partners are left off. A change or cut given only in a name is not applied to a line headed by its entry. Residues count along the entry.
UniProt E2QC84: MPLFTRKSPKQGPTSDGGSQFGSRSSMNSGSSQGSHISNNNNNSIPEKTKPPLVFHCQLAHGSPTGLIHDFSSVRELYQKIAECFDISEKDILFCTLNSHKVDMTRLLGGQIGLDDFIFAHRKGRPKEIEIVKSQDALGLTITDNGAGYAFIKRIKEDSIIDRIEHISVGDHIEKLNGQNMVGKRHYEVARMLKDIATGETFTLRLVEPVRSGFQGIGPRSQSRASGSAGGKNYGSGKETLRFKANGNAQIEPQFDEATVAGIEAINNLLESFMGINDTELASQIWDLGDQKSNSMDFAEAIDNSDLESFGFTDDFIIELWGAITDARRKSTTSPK
UniProt P16378: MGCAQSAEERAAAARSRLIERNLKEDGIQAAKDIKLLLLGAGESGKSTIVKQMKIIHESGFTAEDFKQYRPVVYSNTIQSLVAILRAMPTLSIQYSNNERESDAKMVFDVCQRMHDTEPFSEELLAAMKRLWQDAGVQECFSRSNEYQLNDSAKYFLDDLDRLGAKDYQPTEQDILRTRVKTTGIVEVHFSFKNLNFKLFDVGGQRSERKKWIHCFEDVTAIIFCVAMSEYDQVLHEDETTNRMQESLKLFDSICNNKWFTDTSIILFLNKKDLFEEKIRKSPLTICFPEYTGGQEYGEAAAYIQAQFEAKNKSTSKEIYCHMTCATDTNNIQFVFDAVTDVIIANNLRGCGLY
UniProt P18537, residues 19-581: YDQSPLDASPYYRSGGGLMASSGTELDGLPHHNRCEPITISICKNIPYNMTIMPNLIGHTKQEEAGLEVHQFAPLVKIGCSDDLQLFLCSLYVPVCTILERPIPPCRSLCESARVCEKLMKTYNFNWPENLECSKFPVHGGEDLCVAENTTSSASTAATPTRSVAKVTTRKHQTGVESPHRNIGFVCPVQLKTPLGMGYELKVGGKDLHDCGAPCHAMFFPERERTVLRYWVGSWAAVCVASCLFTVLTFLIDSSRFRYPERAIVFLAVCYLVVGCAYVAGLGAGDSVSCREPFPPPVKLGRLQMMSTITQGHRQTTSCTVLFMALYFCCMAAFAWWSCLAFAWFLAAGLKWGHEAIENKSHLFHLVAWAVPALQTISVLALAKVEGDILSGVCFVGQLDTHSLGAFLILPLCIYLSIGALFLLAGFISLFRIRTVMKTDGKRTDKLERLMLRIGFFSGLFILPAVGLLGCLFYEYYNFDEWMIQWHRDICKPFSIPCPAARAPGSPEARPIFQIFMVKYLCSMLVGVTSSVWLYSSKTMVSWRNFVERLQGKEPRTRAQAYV

For assay [3], the target named is MBP-Kermit (Drosophila) (UniProt E2QC84). The experiment in a line: pull-down; MBP-Kermit, His6-CG5036 or His6-Rab5 linked on CNBr-activated Sepharose; MBP-Fz from bacterial membranes solubilized with 10 mM CHAPS (30 min, 4°C); 3 h at 4°C, Western blot; only the target purified.
Assay [4] has the same target. Kind of assay: pull-down; MBP-Kermit immobilised (amylose resin by the results, CNBr-Sepharose by the methods); soluble purified Gαo, human RGS19 or CG5036 added in equimolar amounts; HKB buffer, 3 h at 4°C, Western blot; both purified. This is another data set of the same source.

No constants are given. Whether binding was seen depends on the method and setting. For some assays here: A result given as binding can be weak or reduced; the word gives no strength. For some assays here: In cells and extracts the contact can be indirect.

Consider His6-Gαo (from UniProt P16378 1-354), for which the binding result with MBP-Kermit (Drosophila) [1] is “binds”.

For the molecule “Gαo from Drosophila head extracts (from UniProt P16378 1-354)”, the binding result with MBP-Kermit (Drosophila) [2] is given as “binds”.

Turning to MBP-Kermit (from UniProt E2QC84), in the assay with His6-Gαo (Drosophila), the binding result is given as “binds”.

As for “MBP-Fz (from UniProt P18537 19-581) (receptor)”, in the assay with MBP-Kermit (Drosophila) [3], the binding result was “no binding”.

B1: human RGS19 (protein, UniProt P49795 1-217)
chain: MPTPHEAEKQITGPEEADRPPSMSSHDTASPAAPSRNPCCLCWCCCCSCSWNQERRRAWQASRESKLQPLPSCEVCATPSPEEVQSWAQSFDKLMHSPAGRSVFRAFLRTEYSEENMLFWLACEELKAEANQHVVDEKARLIYEDYVSILSPKEVSLDSRVREGINKKMQEPSAHTFDDAQLQIYTLMHRDSYPRFLSSPTYRALLLQGPSQSSSEA
As for B1, the binding result with MBP-Kermit (Drosophila) [4] is “binds”.
